Measurements as given in patent US20060053496A1.
No constants are given. Whether binding was seen depends on the method and setting. Binding seen in cells or lysates may run through a third protein. Some binding calls cover weakened binding; strength is not graded here. Sequences can lack the tags named with a protein. Values belong to the binder of their own block, whether it stands above or below them.

By UniProt entry, the sequences of proteins in these tests, tags left out.
UniProt Q99558: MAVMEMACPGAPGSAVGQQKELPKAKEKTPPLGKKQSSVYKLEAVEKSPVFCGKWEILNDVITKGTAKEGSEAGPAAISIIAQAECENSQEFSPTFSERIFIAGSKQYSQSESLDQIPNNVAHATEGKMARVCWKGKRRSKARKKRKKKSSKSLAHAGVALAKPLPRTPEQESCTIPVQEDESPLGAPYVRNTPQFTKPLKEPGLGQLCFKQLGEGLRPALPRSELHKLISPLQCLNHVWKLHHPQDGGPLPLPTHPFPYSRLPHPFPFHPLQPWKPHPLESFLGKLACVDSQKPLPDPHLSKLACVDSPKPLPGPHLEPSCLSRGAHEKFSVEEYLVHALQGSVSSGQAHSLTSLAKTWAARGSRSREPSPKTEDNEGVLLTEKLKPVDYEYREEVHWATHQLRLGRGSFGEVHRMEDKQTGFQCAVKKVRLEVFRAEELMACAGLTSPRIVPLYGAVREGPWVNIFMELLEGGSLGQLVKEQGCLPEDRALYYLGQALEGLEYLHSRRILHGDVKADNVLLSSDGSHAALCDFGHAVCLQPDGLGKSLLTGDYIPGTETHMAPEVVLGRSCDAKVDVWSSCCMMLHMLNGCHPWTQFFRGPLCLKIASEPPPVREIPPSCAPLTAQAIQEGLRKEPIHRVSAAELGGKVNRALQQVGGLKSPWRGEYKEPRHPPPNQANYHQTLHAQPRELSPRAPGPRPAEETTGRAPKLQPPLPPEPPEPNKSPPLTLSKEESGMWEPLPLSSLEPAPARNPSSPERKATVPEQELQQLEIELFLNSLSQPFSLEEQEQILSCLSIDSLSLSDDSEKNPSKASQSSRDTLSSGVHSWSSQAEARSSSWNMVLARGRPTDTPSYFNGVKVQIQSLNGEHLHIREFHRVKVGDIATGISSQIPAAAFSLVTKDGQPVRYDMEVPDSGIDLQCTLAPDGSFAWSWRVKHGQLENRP
UniProt Q96P20: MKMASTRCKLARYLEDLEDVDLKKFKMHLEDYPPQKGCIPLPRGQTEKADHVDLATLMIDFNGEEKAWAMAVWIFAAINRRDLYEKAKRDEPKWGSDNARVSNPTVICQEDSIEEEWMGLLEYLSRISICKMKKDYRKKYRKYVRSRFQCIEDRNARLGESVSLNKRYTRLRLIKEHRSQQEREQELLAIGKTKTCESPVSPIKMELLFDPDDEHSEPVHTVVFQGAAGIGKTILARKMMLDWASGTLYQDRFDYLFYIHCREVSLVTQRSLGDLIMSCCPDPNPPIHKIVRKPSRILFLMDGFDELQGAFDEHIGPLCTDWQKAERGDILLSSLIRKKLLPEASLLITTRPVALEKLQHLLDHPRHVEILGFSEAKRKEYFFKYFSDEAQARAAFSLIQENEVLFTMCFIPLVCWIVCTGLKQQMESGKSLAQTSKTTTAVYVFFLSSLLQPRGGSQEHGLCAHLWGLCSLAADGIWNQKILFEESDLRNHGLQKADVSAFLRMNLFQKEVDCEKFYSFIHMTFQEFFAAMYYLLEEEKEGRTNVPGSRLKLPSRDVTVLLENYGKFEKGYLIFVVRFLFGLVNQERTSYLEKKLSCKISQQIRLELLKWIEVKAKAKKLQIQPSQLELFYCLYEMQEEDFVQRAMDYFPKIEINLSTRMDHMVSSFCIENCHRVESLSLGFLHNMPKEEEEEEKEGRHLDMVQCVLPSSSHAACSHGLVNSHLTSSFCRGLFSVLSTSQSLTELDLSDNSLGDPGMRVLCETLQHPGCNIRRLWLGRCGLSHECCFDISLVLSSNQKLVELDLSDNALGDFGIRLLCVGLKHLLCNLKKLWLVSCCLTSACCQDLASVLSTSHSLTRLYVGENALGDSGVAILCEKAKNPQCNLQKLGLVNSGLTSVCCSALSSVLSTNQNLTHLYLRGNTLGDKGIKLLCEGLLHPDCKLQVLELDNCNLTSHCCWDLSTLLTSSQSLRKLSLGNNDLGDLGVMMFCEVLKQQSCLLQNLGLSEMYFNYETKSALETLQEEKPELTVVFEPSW

Key:
[1] = target: NF-κB Inducing Kinase (UniProt Q99558); assay: co-immunoprecipitation from transfected 293T cells (anti-FLAG M2 IP, anti-NIK H-248 western blot)
[2] = target: NF-κB Inducing Kinase (UniProt Q99558); assay: summary sentence of Example 2 (co-immunoprecipitation)
[3] = target: FLAG-tagged CIAS1 (human) (UniProt Q96P20); assay: co-immunoprecipitation from transfected 293T cells (anti-FLAG IP of CIAS1, anti-HA western blot)
[4] = target: FLAG-tagged CIAS1 (human) (UniProt Q96P20); assay: summary sentence of Example 2 (co-immunoprecipitation)

binding [1]: binds
binding [2]: binds
B1: FLAG-tagged Monarch-1 (protein, not shown: small tags and cut ends)
chain: MLRTAGRDGLCRLSTYLEELEAVELKKFKLYLGTATELGEGKIPWGSMEKAGPLEMAQLLITHFGPEEAWRLALSTFERINRKDLWERGQREDLVRDTPPGGPSSLGNQSTCLLEVSLVTPRKDPQETYRDYVRRKFRLMEDRNARLGECVNLSHRYTRLLLVKEHSNPMQVQQQLLDTGRGHARTVGHQASPIKIETLFEPDEERPEPPRTVVMQGAAGIGKSMLAHKVMLDWADGKLFQGRFDYLFYINCREMNQSATECSMQDLIFSCWPEPSAPLQELIRVPERLLFIIDGFDELKPSFHDPQGPWCLCWEEKRPTELLLNSLIRKKLLPELSLLITTRPTALEKLHRLLEHPRHVEILGFSEAERKEYFYKYFHNAEQAGQVFNYVRDNEPLFTMCFVPLVCWVVCTCLQQQLEGGGLLRQTSRTTTAVYMLYLLSLMQPKPGAPRLQPPPNQRGLCSLAADGLWNQKILFEEQDLRKHGLDGEDVSAFLNMNIFQKDINCERYYSFIHLSFQEFFAAMYYILDEGEGGAGPDQDVTRLLTEYAFSERSFLALTSRFLFGLLNEETRSHLEKSLCWKVSPHIKMDLLQWIQSKAQSDGSTLQQGSLEFFSCLYEIQEEEFIQQALSHFQVIVVSNIASKMEHMVSSFCLKRCRSAQVLHLYGATYSADGEDRARCSAGAHTLLVQLRPERTVLLDAYSEHLAAALCTNPNLIELSLYRNALGSRGVKLLCQGLRHPNCKLQNLRLKRCRISSSACEDLSAALIANKNLTRMDLSGNGVGFPGMMLLCEGLRHPQCRLQMIQLRKCQLESGACQEMASVLGTNPHLVELDLTGNALEDLGLRLLCQGLRHPVCRLRTLWLKICRLTAAACDELASTLSVNQSLRELDLSLNELGDLGVLLLCEGLRHPTCKLQTLRLGICRLGSAACEGLSVVLQANHNLRELDLSFNDLGDWGLWLLAEGLQHPACRLQKLWLDSCGLTAKACENLYFTLGINQTLTDLYLTNNALGDTGVRLLCKRLSHPGCKLRVLWLFGMDLNKMTHSRLAALRVTKPYLDIGC

binding [3]: binds
binding [4]: binds
B2: HA-tagged Monarch-1 (protein, not shown: small tags and cut ends)
chain: B1 chain
